No constants are given. Whether binding was seen depends on the method and setting. Binding calls can cover weak binding; strength is not graded here. Where a sequence is shown, tags or fusion partners need not be part of it. For some assays here: In cells and extracts the contact can be indirect.
What was measured:
[1] = biological target: T1, GST-fused pK15 cytoplasmic tail (pK15 CT WT), phosphorylated in vitro by Src (Kaposi Sarcoma-associated herpesvirus (KSHV, HHV-8)) (UniProt Q9QR69); assay: AlphaScreen or HTRF; AlphaLISA: GST-pK15 proteins phosphorylated by 2xStrep-Src and His-tagged PLCγ1 fragments, 300 nM each, glutathione donor and Ni chelate acceptor beads, room temperature, 1xPBS, 0.5% BSA, 0.01% Tween 20; both purified
T1 sequence (chain, phosphotyrosine at Y481 (dominant band) and Y431 (minor band), in vitro by Src): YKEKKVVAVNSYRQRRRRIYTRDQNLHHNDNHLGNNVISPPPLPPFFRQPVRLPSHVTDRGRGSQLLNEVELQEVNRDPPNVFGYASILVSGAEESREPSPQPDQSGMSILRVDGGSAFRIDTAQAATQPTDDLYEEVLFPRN

[2] = biological target: T1, GST-fused pK15 cytoplasmic tail (pK15 CT WT), phosphorylated in vitro by Src (Kaposi Sarcoma-associated herpesvirus (KSHV, HHV-8)); assay: pull-down; GST-pK15 CT proteins on glutathione beads, phosphorylated in vitro by Src or left unphosphorylated, incubated overnight at 4°C with HEK-293T lysate (transfected or untransfected) in IP buffer (50 mM Tris pH7.6, 60 mM NaCl) with phosphatase inhibitors; Western blot; only the target purified

| Substance | binding [1] | binding [2] |
| --- | --- | --- |
| His-tagged purified PLCγ1 nSH2 domain (domain or fragment) | no binding (tested: 300 nM of each protein) |  |
| S-tagged PLCγ1 cSH2 domain, transfected (domain or fragment) |  | binds |
| His-tagged purified PLCγ1 cSH2 domain (domain or fragment) | binds |  |
| His-tagged purified PLCγ1 cSH2 domain R694L (domain or fragment) | no binding (tested: 300 nM of each protein) |  |
| His-tagged purified PLCγ1 tandem SH2 (tSH2) domain (domain or fragment) | binds |  |

— publication PMC8244865, “Recruitment of phospholipase Cγ1 to the non-structural membrane protein pK15 of Kaposi Sarcoma-associated herpesvirus promotes its Src-dependent phosphorylation” (PLoS Pathogens, 2021)
